# Measurements published in PMC3641059.
# No constants are given. Whether binding was seen depends on the method and setting. Some entries that bind do so weakly or less than the wild type. For some assays here: Where a sequence is shown, tags or fusion partners need not be part of it.
# T1: Ste11 (S. cerevisiae) (UniProt P23561)
# T1 sequence: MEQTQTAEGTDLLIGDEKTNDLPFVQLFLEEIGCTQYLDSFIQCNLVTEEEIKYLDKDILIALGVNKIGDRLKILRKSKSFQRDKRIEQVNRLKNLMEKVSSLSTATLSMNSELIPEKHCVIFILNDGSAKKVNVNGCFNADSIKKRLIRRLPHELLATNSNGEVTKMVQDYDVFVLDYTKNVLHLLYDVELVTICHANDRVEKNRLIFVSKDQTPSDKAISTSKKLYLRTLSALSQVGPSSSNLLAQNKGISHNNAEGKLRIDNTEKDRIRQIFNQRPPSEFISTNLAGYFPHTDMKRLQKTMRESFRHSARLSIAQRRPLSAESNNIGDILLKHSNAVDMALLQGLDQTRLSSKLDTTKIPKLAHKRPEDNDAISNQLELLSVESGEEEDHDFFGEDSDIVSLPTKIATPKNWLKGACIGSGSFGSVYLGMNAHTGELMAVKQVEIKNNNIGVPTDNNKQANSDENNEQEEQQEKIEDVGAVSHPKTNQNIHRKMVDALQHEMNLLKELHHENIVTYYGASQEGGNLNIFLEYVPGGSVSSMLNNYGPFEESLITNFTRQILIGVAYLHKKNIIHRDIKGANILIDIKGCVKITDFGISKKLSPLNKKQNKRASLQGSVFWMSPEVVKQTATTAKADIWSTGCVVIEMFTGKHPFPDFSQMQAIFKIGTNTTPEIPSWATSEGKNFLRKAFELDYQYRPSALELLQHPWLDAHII
# T2: Ede1-FRB (S. cerevisiae) (UniProt P34216)
# T2 sequence: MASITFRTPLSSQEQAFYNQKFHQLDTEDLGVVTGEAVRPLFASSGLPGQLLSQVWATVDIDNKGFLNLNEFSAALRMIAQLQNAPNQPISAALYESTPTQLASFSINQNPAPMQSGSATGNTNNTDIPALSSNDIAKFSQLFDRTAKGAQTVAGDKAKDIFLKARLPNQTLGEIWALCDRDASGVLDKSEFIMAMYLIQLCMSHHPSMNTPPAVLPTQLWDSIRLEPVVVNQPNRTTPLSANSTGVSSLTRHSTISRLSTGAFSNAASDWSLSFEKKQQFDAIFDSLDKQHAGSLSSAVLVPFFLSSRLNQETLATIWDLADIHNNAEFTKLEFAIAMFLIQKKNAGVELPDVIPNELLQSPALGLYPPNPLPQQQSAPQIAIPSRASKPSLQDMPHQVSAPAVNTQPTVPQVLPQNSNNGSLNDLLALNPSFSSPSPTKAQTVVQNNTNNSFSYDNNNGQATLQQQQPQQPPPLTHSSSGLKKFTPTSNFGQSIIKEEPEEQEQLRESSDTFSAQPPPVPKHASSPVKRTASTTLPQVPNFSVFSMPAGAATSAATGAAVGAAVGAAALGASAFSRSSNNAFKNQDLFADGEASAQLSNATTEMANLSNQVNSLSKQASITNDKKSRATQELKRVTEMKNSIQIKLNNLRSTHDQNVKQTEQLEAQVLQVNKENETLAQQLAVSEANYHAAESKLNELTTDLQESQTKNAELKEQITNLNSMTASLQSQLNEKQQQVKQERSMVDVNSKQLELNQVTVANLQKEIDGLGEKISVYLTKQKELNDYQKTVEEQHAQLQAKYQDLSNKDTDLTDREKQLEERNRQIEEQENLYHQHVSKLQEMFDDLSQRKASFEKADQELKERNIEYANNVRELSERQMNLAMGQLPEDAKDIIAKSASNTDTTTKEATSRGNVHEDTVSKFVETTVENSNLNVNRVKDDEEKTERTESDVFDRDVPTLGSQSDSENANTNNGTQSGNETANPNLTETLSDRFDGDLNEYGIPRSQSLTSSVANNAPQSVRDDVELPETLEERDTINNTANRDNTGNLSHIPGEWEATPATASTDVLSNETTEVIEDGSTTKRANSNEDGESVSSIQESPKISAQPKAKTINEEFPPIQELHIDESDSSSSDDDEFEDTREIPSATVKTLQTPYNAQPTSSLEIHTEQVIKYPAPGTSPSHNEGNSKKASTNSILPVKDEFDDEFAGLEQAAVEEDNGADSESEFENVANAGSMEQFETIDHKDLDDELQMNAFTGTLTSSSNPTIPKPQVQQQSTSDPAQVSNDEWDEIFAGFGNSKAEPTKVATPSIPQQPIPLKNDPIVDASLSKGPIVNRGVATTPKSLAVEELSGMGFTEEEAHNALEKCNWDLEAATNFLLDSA
# Tests used:
# Ste11 (S. cerevisiae) [1] = biological target: T1, Ste11 (S. cerevisiae); test: PICT (co-translocation of GFP-tagged prey with FRB-tagged bait to an FKBP-tagged anchor, live-cell fluorescence imaging); living S. cerevisiae (tor1-1, FPR1 deleted), anchor Pil1-RFP-FKBP, bait-FRB, prey-GFP; cells grown in SD medium at 25°C, vehicle (DMSO) or 10 µM rapamycin, imaged after 15 min; scored positive when >90% of membrane patches in the GFP channel colocalised with the anchor; also done in ste5Δ and ste50Δ cells
# Ste11 (S. cerevisiae) [2] = biological target: T1, Ste11 (S. cerevisiae); test: PICT-FRAP (fluorescence recovery after photobleaching of GFP-tagged protein recruited to the anchor sites); living S. cerevisiae, anchor Pil1-RFP-FKBP, rapamycin; 488 nm laser bleaching of an anchoring platform; exchange of the GFP-tagged protein followed
# Ede1-FRB (S. cerevisiae) [3] = biological target: T2, Ede1-FRB (S. cerevisiae); test: PICT (co-translocation of GFP-tagged prey with FRB-tagged bait to an FKBP-tagged anchor, live-cell fluorescence imaging); living S. cerevisiae (tor1-1, FPR1 deleted), anchor Pil1-RFP-FKBP, bait-FRB, prey-GFP; cells grown in SD medium at 25°C, vehicle (DMSO) or 10 µM rapamycin, imaged after 15 min; scored positive when >90% of membrane patches in the GFP channel colocalised with the anchor; also done in ste5Δ and ste50Δ cells
# Ede1-FRB (S. cerevisiae) [4] = biological target: T2, Ede1-FRB (S. cerevisiae); test: PICT-FRAP (fluorescence recovery after photobleaching of GFP-tagged protein recruited to the anchor sites); living S. cerevisiae, anchor Pil1-RFP-FKBP, rapamycin; 488 nm laser bleaching of an anchoring platform; exchange of the GFP-tagged protein followed
binder,measurement,setting,value
"Ste50 (protein, UniProt P25344 1-346) MEDGKQAINEGSNDASPDLDVNGTILMNNEDFSQWSVDDVITWCISTLEVEETDPLCQRLRENDIVGDLLPELCLQDCQDLCDGDLNKAIKFKILINKMRDSKLEWKDDKTQEDMITVLKNLYTTTSAKLQEFQSQYTRLRMDVLDVMKTSSSSSPINTHGVSTTVPSSNNTIIPSSDGVSLSQTDYFDTVHNRQSPSRRESPVTVFRQPSLSHSKSLHKDSKNKVPQISTNQSHPSAVSTANTPGPSPNEALKQLRASKEDSCERILKNAMKRHNLADQDWRQYVLVICYGDQERLLELNEKPVIIFKNLKQQGLHPAIMLRRRGDFEEVAMMNGSDNVTPGGRL",binding,Ste11 (S. cerevisiae) [1],binds
same,binding,Ste11 (S. cerevisiae) [2],binds
"Syp1-GFP (protein, UniProt P25623 1-870) MTEQRTKYADSILTTKSPYEATETIRIRLSQVKLLNKDFYLLFKELANLKRNYAQQLRKIIAENEDITKILNAQMIESNVLTPQEMSAFRFNSLGELRNVWDTVIEELKSDLKSSTEYYNTLDQQVVRELKESVENNTSWRESKDLHSKLSKNAASIEHYSKNNENSSHLEEARRQWDQQSPYLFELFETIDYNRLDTLKNCMLRFQTSFSDYLLNTTKECETVMTKFLAFEPQSEIDRFAKDASQYNFQLSSSSKEVVPNNASPASATGARPVSVSNGAANTEREKKSPQKDKRKSAFGNIGHRLASASSSLTHNDLMNNEFSDSTNNSSLKSKKSSHTLRSKVGSIFGRNKTKNKRQQQSSSNSHIQASITETPNNSSTRVSSTATSSIYQKQRRPTYSSSKSNNWTPGEASDTPPLPPHATPKNVDAPVTADTPPAQTFTPSEVPPSTPQQSSPPTAKEPDSSNLPKTVPISISQPPLQPQSKTKPLPVEPASPSISLPTATVDNQPSGQVDSRPLHIRAPALPPSRKQNFIHNRDSQLYDSLPNHGSGATPTSSSLSSIPQERPVSTLSSQITGELRELNPQATGSSTSLVGQSLFQHSSLDTSQFGLNASIAEVLNASFKDGMLQNSQLIGEIALNYLPNSVMNSPLPIGINLRINNGAKFEKVILNQAFIERVAPEEFKVNPSFIDSRTLGAIKYSIKEPIAPIVIHPVWRFESHQASVVLTVKMSPSLPDEISQIVIEDLVVFVNIDGANATSALSKPQGSFSKEKKRITWRFKEPVVLTRNGEGQRLIARFITDGLAHESAKGVITKFTISETDNVALPHSGAGSGITLTCQELDENNPFGGEWLDVNTKRTLTTGNYHGLA",binding,Ede1-FRB (S. cerevisiae) [3],binds
same,binding,Ede1-FRB (S. cerevisiae) [4],binds
"Ste5 (protein, UniProt P32917 1-917) MMETPTDNIVSPFHNFGSSTQYSGTLSRTPNQIIELEKPSTLSPLSRGKKWTEKLARFQRSSAKKKRFSPSPISSSTFSFSPKSRVTSSNSSGNEDGNLMNTPSTVSTDYLPQHPHRTSSLPRPNSNLFHASNSNLSRANEPPRAENLSDNIPPKVAPFGYPIQRTSIKKSFLNASCTLCDEPISNRRKGEKIIELACGHLSHQECLIISFGTTSKADVRALFPFCTKCKKDTNKAVQCIPENDELKDILISDFLIHKIPDSELSITPQSRFPPYSPLLPPFGLSYTPVERQTIYSQAPSLNPNLILAAPPKERNQIPQKKSNYTFLHSPLGHRRIPSGANSILADTSVALSANDSISAVSNSVRAKDDETKTTLPLLRSYFIQILLNNFQEELQDWRIDGDYGLLRLVDKLMISKDGQRYIQCWCFLFEDAFVIAEVDNDVDVLEIRLKNLEVFTPIANLRMTTLEASVLKCTLNKQHCADLSDLYIVQNINSDESTTVQKWISGILNQDFVFNEDNITSTLPILPIIKNFSKDVGNGRHETSTFLGLINPNKVVEVGNVHDNDTVIIRRGFTLNSGECSRQSTVDSIQSVLTTISSILSLKREKPDNLAIILQIDFTKLKEEDSLIVVYNSLKALTIKFARLQFCFVDRNNYVLDYGSVLHKIDSLDSISNLKSKSSSTQFSPIWLKNTLYPENIHEHLGIVAVSNSNMEAKKSILFQDYRCFTSFGRRRPNELKIKVGYLNVDYSDKIDELVEASSWTFVLETLCYSFGLSFDEHDDDDEEDNDDSTDNELDNSSGSLSDAESTTTIHIDSPFDNENATANMVNDRNLLTEGEHSNIENLETVASSVQPALIPNIRFSLHSEEEGTNENENENDMPVLLLSDMDKGIDGITRRSSFSSLIESGNNNCPLHMDYI",binding,Ste11 (S. cerevisiae) [1],binds
